Results published in the supplement of paper PMC8728848.
The list shows a part of the results.

Key:
Assay in all cases: glycan array binding signal (z-score within array); higher = stronger binding
Conditions in all cases: glycan notation: IUPAC condensed, linker removed
[1] = target: Neu5Ac(a2-3)Gal(b1-4)GlcNAc(b1-2)[Neu5Ac(a2-3)Gal(b1-4)GlcNAc(b1-4)]Man(a1-3)[GlcNAc(b1-4)][Neu5Ac(a2-3)Gal(b1-4)GlcNAc(b1-4)Man(a1-6)]Man(b1-4)GlcNAc(b1-4)GlcNAc
How it was run: (§1)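 Columns mapping to the same glycan were averaged after glycan names were converted to IUPAC-condensed notation. The data come from 3228 arrays in the Consortium for Functional Glycomics database, limited to those with an available protein sequence. Binding is reported as a within-array Z-score averaged across arrays of one protein sequence and across linkers.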

[2] = target: Neu5Ac(a2-3)Gal(b1-4)GlcNAc(b1-2)[Neu5Ac(a2-3)Gal(b1-4)GlcNAc(b1-6)]Man(a1-6)[Neu5Ac(a2-3)Gal(b1-4)GlcNAc(b1-2)Man(a1-3)]Man(b1-4)GlcNAc(b1-4)GlcNAc
How it was run: as §1

[3] = target: Neu5Ac(a2-3)Gal(b1-4)GlcNAc(b1-2)[Neu5Ac(a2-3)Gal(b1-4)GlcNAc(b1-6)]Man(a1-6)[Neu5Ac(a2-3)Gal(b1-4)GlcNAc(b1-2)Man(a1-3)][GlcNAc(b1-4)]Man(b1-4)GlcNAc(b1-4)GlcNAc
How it was run: as §1

[4] = target: Neu5Ac(a2-3)Gal(b1-4)GlcNAc(b1-3)Gal
How it was run: as §1

[5] = target: Neu5Ac(a2-3)Gal(b1-4)GlcNAc(b1-3)Gal(b1-3)GlcNAc
How it was run: as §1

[6] = target: Neu5Ac(a2-3)Gal(b1-4)GlcNAc(b1-3)Gal(b1-4)GlcNAc
How it was run: as §1

[7] = target: Neu5Ac(a2-3)Gal(b1-4)GlcNAc(b1-3)Gal(b1-4)GlcNAc(b1-2)Man(a1-3)[Neu5Ac(a2-3)Gal(b1-4)GlcNAc(b1-3)Gal(b1-4)GlcNAc(b1-2)Man(a1-6)]Man(b1-4)GlcNAc(b1-4)GlcNAc
How it was run: as §1

[8] = target: Neu5Ac(a2-3)Gal(b1-4)GlcNAc(b1-3)Gal(b1-4)GlcNAc(b1-3)Gal(b1-4)GlcNAc
How it was run: as §1

[9] = target: Neu5Ac(a2-3)Gal(b1-4)GlcNAc(b1-3)Gal(b1-4)GlcNAc(b1-3)Gal(b1-4)GlcNAc(b1-2)Man(a1-3)[Neu5Ac(a2-3)Gal(b1-4)GlcNAc(b1-3)Gal(b1-4)GlcNAc(b1-3)Gal(b1-4)GlcNAc(b1-2)Man(a1-6)]GalNAc
How it was run: as §1

[10] = target: Neu5Ac(a2-3)Gal(b1-4)GlcNAc(b1-3)Gal(b1-4)GlcNAc(b1-3)GalNAc
How it was run: as §1

[11] = target: Neu5Ac(a2-3)Gal(b1-4)GlcNAc(b1-3)Gal(b1-4)GlcNAc(b1-3)[Neu5Ac(a2-3)Gal(b1-4)GlcNAc(b1-3)Gal(b1-4)GlcNAc(b1-6)]GalNAc
How it was run: as §1

[12] = target: Neu5Ac(a2-3)Gal(b1-4)GlcNAc(b1-3)Gal(b1-4)GlcNAc(b1-6)[Gal(b1-3)]GalNAc
How it was run: as §1

[13] = target: Neu5Ac(a2-3)Gal(b1-4)GlcNAc(b1-3)Gal(b1-4)[Fuc(a1-3)]GlcNAc
How it was run: as §1

[14] = target: Neu5Ac(a2-3)Gal(b1-4)GlcNAc(b1-3)GalNAc
How it was run: as §1

[15] = target: Neu5Ac(a2-3)Gal(b1-4)GlcNAc(b1-3)[Neu5Ac(a2-3)Gal(b1-4)GlcNAc(b1-6)]GalNAc
How it was run: as §1

[16] = target: Neu5Ac(a2-3)Gal(b1-4)GlcNAc(b1-6)GalNAc
How it was run: as §1

[17] = target: Neu5Ac(a2-3)Gal(b1-4)GlcNAc(b1-6)[Gal(b1-3)]GalNAc
How it was run: as §1

[18] = target: Neu5Ac(a2-3)Gal(b1-4)GlcNAc(b1-6)[Neu5Ac(a2-3)Gal(b1-3)]GalNAc
How it was run: as §1

[19] = target: Neu5Ac(a2-3)Gal(b1-4)GlcNAc6S
How it was run: as §1

[20] = target: Neu5Ac(a2-3)Gal(b1-4)[Fuc(a1-3)]GlcNAc
How it was run: as §1

[21] = target: Neu5Ac(a2-3)Gal(b1-4)[Fuc(a1-3)]GlcNAc(b1-2)Man
How it was run: as §1

[22] = target: Neu5Ac(a2-3)Gal(b1-4)[Fuc(a1-3)]GlcNAc(b1-3)Gal
How it was run: as §1

[23] = target: Neu5Ac(a2-3)Gal(b1-4)[Fuc(a1-3)]GlcNAc(b1-3)Gal(b1-4)GlcNAc
How it was run: as §1

[24] = target: Neu5Ac(a2-3)Gal(b1-4)[Fuc(a1-3)]GlcNAc(b1-3)Gal(b1-4)[Fuc(a1-3)]GlcNAc(b1-3)Gal(b1-4)[Fuc(a1-3)]GlcNAc
How it was run: as §1

[25] = target: Neu5Ac(a2-3)Gal(b1-4)[Fuc(a1-3)]GlcNAc(b1-3)GalNAc
How it was run: as §1

[26] = target: Neu5Ac(a2-3)Gal(b1-4)[Fuc(a1-3)]GlcNAc(b1-6)[Gal(b1-3)]GalNAc
How it was run: as §1

[27] = target: Neu5Ac(a2-3)Gal(b1-4)[Fuc(a1-3)]GlcNAc(b1-6)[Neu5Ac(a2-3)Gal(b1-3)]GalNAc
How it was run: as §1

[28] = target: Neu5Ac(a2-3)Gal(b1-4)[Fuc(a1-3)]GlcNAc6S
How it was run: as §1

[29] = target: Neu5Ac(a2-3)Gal6S(b1-4)GlcNAc
How it was run: as §1

[30] = target: Neu5Ac(a2-3)Gal6S(b1-4)[Fuc(a1-3)]GlcNAc
How it was run: as §1

Neu5Ac(a2-3)GalNAc = target: Neu5Ac(a2-3)GalNAc
How it was run: as §1

[31] = target: Neu5Ac(a2-3)GalNAc(b1-4)GlcNAc
How it was run: as §1

[32] = target: Neu5Ac(a2-3)[GalNAc(b1-4)]Gal(b1-4)Glc
How it was run: as §1

[33] = target: Neu5Ac(a2-3)[GalNAc(b1-4)]Gal(b1-4)GlcNAc
How it was run: as §1

[34] = target: Neu5Ac(a2-3)[GalNAc(b1-4)]Gal(b1-4)GlcNAc(b1-3)GalNAc
How it was run: as §1

[35] = target: Neu5Ac(a2-3)[Neu5Ac(a2-6)]GalNAc
How it was run: as §1

Neu5Ac(a2-6)Gal = target: Neu5Ac(a2-6)Gal
How it was run: as §1

B1: PX9961Q-bfa-504-27-504 (Bacteroides fragilis) (protein)
chain: NDWLDRKPADGIPSEDAITNYNDALTARTGMYDGIQGNSNATSYYGARMFYYGDVRADDMQARTQGMRSSSCYEMLYTVDDAPNMWNIPYNVIRRANRLIEAINEKKVTDATEAQIGKIYSEALVVRALVHFDLVRIYGMPYTADNGASLGVPVIVKPLERNDLPSRNTVAEVYTQVITDLTDAINSGYLAKDQTPGYINEWAAKALLTRVYLTKGDNENALKVAEDIITNSPYKLWTNEEYVNAWYKSNGAHTNEMIFEVVNASNDDWTDRNGIAYLLNENGYADAIVTKSFMNMLSQDPKDVRIGMVLPAQYDKDLQEEYGDAKIFINKFPADKDDVGEMRLNNLPLLRLSEVYLSAAEAAAKLGGHQDKAAKYLNEIVQRANPEAKAISEADATVERIILERRKEMIGEGQRYFDALRNNETIVRYKDEGDKGYHYSLIKESQSFDRTYFRAILPIPVDETNVNPNLRAQQNPGY
[1]
  glycan array binding signal (z-score): -0.92
[2]
  glycan array binding signal (z-score): 0.918
[3]
  glycan array binding signal (z-score): 0.676
[4]
  glycan array binding signal (z-score): -0.707
[5]
  glycan array binding signal (z-score): -0.674
[6]
  glycan array binding signal (z-score): -0.229
[7]
  glycan array binding signal (z-score): -0.056
[8]
  glycan array binding signal (z-score): -0.525
[9]
  glycan array binding signal (z-score): 1.33
[10]
  glycan array binding signal (z-score): -0.096
[11]
  glycan array binding signal (z-score): 1.19
[12]
  glycan array binding signal (z-score): 1.14
[13]
  glycan array binding signal (z-score): 0.229
[14]
  glycan array binding signal (z-score): -0.435
[15]
  glycan array binding signal (z-score): 0.693
[16]
  glycan array binding signal (z-score): 1.31
[17]
  glycan array binding signal (z-score): 0.353
[18]
  glycan array binding signal (z-score): -0.62
[19]
  glycan array binding signal (z-score): -1.13
[20]
  glycan array binding signal (z-score): -0.693
[21]
  glycan array binding signal (z-score): -0.692
[22]
  glycan array binding signal (z-score): -0.21
[23]
  glycan array binding signal (z-score): 1.29
[24]
  glycan array binding signal (z-score): -0.058
[25]
  glycan array binding signal (z-score): 1.02
[26]
  glycan array binding signal (z-score): -0.244
[27]
  glycan array binding signal (z-score): 0.854
[28]
  glycan array binding signal (z-score): -0.908
[29]
  glycan array binding signal (z-score): -0.501
[30]
  glycan array binding signal (z-score): -0.357
Neu5Ac(a2-3)GalNAc
  glycan array binding signal (z-score): 0.163
[31]
  glycan array binding signal (z-score): -0.763
[32]
  glycan array binding signal (z-score): 0.131
[33]
  glycan array binding signal (z-score): -0.664
[34]
  glycan array binding signal (z-score): -0.113
[35]
  glycan array binding signal (z-score): -0.561
Neu5Ac(a2-6)Gal
  glycan array binding signal (z-score): -0.089
